For one compound, IC50 results are on record in paper PMC4225773 (Bioorganic & medicinal chemistry letters, 2014).

The data set is described as follows: Cytotoxicity to uninfected THP1 macrophage cells. Conditions: human.

`O=C(CCCCCCC(=O)Nc1ccccc1)NO` [SAHA, suberoylanilide hydroxamic acid, reference compound] came in with a half-inhibitory concentration (IC50) of more than 10 µg/mL.
